From article PMC3237483 come the findings set out here.

No constants are given. Whether binding was seen depends on the method and setting. Binding can be weak; no strength is given. Sequences can lack the tags named with a protein.

This assay has as its target His-tagged Ship2 Sh2 domain. The assay can be described thus: far-Western, overlay or dot blot; His-tagged Sh2 domains dot-blotted on a PVDF membrane; membrane incubated with GST-Nephrin cytoplasmic domain from TKB1 (phosphorylated) or BL21 (unphosphorylated) E. coli; probed with GST-HRP antibody; both purified.

B1: GST-Nephrin cytoplasmic domain, tyrosine phosphorylated (TKB1) (domain or fragment, UniProt Q9QZS7 1100-1256)
chain: WRRRLRRLAEEISEKTEAGSEEDRIRNEYEESQWTGDRDTRSSTVSTAEVDPHYYSMRDFSPQLPPTLEEVSYRQAFTGIEDEDMAFPGHLYDEVERVYGPPGVWGPLYDEVQMDPYDLRWPEVKYEDPRGIYDQVAADMDAGEPGSLPFELRGHLV
modifications: tyrosine phosphorylated (expressed in TKB1 E. coli); sites not stated
With B1, the binding result is “binds”.
